Experimental data as given in PMC7070008.
These are yes or no findings as the source states them, for the method shown. In cells and extracts the contact can be indirect. Some binding calls cover weakened binding; strength is not graded here. For part of these data: Sequences can lack the tags named with a protein.

Chains of the proteins cited; added tags and fusions are not shown. Lines headed by an entry give the natural chain unless they say otherwise; changes in a name come on top.
UniProt P15208: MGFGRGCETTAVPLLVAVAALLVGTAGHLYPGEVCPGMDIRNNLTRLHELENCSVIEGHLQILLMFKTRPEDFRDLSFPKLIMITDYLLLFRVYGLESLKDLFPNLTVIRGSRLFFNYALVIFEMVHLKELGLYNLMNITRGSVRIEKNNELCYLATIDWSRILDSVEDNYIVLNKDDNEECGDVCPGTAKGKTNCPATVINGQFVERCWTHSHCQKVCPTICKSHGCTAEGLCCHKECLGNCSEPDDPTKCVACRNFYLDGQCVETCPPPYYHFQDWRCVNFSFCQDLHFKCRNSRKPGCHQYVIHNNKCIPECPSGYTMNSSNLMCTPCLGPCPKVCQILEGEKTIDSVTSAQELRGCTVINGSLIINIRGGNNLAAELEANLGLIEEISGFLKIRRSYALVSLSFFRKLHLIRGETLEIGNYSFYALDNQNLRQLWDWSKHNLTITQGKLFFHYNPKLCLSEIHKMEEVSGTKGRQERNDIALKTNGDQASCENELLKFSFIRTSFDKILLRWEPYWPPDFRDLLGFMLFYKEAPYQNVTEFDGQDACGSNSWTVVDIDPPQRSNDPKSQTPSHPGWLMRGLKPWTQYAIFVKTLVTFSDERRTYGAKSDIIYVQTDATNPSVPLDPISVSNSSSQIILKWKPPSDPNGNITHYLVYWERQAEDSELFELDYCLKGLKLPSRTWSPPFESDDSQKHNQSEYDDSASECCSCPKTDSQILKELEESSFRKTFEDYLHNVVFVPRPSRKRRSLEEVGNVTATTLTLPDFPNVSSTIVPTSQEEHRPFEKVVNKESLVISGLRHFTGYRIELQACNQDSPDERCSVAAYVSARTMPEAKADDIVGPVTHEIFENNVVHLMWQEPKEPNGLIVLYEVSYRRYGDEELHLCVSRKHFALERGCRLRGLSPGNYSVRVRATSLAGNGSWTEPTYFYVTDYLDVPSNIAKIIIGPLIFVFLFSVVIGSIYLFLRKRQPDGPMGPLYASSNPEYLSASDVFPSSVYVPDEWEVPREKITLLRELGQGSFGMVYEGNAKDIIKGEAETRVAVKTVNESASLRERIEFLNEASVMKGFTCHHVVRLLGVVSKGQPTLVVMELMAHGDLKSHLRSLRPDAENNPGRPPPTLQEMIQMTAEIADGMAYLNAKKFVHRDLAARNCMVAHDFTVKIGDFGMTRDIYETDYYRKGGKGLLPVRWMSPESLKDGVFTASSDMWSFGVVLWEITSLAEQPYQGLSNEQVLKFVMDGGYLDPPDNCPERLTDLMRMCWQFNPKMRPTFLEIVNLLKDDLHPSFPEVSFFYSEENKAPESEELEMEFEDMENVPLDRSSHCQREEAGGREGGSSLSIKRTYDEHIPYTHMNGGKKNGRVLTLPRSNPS
UniProt P11531: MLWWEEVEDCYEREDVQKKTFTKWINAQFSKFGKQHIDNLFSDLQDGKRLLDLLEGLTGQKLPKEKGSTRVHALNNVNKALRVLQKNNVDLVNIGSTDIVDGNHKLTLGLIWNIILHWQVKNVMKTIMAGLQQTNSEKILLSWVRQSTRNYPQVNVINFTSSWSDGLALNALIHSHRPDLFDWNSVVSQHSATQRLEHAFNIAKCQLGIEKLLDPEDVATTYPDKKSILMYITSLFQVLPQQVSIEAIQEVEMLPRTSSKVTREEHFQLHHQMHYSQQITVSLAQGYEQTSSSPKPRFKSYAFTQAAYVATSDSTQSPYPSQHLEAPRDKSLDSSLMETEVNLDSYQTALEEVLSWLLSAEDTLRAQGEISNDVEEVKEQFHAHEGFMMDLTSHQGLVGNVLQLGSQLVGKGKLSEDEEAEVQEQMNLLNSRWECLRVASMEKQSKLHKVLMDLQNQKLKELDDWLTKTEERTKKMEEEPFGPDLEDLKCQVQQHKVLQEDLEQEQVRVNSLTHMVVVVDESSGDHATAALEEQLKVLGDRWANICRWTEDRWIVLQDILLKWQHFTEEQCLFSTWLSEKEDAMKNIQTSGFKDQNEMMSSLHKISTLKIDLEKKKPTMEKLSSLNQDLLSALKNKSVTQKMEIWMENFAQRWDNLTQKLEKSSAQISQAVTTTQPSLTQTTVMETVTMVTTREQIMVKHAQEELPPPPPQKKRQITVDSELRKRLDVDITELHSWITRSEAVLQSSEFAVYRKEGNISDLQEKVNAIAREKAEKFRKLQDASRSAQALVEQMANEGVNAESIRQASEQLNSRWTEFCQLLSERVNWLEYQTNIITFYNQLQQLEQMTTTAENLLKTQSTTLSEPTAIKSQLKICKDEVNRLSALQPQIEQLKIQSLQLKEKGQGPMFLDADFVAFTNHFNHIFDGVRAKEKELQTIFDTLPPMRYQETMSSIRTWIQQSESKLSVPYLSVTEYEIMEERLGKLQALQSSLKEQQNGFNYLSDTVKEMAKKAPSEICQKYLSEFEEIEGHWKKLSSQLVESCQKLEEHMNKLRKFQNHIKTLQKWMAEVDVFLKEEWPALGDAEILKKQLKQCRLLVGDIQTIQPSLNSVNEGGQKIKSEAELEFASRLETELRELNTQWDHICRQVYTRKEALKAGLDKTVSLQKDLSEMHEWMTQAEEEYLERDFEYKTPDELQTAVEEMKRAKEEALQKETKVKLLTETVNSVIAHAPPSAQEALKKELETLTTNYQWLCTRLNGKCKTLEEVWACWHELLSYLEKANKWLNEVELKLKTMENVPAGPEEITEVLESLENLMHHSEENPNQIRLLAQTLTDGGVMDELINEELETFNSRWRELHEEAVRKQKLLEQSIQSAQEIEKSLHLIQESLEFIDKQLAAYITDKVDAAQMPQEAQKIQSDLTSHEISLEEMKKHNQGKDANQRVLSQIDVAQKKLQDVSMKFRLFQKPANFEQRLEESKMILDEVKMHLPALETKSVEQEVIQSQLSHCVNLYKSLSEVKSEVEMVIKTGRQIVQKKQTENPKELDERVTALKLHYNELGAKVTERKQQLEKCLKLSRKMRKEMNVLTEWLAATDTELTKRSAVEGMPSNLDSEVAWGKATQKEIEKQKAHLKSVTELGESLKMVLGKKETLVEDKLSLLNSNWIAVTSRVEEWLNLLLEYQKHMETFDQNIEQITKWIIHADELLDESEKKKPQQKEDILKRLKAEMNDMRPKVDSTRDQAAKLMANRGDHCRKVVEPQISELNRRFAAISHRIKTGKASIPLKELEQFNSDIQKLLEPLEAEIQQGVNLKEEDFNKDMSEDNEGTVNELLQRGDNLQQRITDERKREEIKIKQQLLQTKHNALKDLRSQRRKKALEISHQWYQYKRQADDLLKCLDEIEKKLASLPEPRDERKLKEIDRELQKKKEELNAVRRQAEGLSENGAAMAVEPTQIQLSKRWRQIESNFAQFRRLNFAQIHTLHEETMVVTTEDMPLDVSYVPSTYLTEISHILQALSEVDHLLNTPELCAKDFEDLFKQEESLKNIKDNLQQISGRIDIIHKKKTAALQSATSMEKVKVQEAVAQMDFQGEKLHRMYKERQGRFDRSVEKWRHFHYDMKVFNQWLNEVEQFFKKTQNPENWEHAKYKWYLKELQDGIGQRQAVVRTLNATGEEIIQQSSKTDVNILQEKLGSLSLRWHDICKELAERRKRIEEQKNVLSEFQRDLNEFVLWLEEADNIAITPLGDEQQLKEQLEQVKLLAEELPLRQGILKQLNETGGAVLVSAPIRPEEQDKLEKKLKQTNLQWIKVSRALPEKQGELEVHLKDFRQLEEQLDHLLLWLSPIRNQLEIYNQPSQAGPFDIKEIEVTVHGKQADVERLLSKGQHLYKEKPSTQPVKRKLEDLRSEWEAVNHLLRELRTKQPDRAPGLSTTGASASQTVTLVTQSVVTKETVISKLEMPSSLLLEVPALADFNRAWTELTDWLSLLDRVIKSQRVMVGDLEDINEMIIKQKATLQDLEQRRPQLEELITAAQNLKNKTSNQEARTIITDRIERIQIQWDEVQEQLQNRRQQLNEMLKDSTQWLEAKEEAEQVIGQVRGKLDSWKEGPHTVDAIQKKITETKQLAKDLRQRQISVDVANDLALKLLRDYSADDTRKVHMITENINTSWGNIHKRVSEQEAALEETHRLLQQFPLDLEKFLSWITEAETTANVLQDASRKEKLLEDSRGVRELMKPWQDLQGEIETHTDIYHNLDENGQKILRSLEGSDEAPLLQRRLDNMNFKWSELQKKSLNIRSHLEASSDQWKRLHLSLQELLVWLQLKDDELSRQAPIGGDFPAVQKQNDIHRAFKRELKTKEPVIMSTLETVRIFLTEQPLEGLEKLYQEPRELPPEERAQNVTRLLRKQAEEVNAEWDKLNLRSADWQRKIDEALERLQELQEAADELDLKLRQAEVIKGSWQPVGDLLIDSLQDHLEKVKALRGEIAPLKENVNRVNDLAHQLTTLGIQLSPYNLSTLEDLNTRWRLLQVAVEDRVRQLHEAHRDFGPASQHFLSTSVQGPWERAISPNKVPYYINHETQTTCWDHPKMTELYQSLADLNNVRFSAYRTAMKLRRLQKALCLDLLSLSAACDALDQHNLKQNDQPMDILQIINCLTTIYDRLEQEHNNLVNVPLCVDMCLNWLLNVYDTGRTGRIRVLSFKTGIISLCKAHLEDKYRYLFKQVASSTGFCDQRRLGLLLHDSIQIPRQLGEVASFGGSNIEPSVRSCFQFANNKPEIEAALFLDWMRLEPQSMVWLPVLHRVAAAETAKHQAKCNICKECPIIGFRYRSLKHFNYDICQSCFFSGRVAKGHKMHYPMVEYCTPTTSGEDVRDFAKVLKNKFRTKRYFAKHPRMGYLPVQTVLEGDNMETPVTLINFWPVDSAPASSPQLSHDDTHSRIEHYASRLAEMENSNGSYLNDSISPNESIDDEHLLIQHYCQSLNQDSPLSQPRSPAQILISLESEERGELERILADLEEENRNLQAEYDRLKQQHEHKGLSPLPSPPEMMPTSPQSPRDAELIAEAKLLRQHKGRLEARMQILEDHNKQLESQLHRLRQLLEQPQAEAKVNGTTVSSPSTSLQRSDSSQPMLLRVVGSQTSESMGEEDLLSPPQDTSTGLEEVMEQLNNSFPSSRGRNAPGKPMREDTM

T1: plakoglobin (γ-catenin) (mouse (endogenous in mouse skeletal muscle, heart and liver)) (UniProt Q02257)
T1 sequence: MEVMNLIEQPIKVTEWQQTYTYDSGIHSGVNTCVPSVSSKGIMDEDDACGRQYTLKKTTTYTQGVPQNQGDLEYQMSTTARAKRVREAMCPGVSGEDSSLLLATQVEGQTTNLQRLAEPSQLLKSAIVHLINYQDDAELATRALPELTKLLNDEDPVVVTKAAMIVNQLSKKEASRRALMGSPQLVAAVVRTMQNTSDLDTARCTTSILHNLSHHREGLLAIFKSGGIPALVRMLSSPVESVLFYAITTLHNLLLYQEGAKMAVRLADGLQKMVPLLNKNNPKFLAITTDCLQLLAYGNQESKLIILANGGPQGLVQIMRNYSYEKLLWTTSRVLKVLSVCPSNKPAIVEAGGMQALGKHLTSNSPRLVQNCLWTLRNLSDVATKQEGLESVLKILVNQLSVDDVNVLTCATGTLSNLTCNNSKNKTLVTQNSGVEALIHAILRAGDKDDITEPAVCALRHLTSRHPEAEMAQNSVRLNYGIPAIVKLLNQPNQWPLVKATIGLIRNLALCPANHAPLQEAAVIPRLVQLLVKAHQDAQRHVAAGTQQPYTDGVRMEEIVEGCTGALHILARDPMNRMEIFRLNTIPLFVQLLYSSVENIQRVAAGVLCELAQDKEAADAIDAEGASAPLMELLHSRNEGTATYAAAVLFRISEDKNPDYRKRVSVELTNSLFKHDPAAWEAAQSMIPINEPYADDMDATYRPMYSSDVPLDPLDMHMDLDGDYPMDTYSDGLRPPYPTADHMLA

T2: 6His-plakoglobin (UniProt P14923)
T2 sequence: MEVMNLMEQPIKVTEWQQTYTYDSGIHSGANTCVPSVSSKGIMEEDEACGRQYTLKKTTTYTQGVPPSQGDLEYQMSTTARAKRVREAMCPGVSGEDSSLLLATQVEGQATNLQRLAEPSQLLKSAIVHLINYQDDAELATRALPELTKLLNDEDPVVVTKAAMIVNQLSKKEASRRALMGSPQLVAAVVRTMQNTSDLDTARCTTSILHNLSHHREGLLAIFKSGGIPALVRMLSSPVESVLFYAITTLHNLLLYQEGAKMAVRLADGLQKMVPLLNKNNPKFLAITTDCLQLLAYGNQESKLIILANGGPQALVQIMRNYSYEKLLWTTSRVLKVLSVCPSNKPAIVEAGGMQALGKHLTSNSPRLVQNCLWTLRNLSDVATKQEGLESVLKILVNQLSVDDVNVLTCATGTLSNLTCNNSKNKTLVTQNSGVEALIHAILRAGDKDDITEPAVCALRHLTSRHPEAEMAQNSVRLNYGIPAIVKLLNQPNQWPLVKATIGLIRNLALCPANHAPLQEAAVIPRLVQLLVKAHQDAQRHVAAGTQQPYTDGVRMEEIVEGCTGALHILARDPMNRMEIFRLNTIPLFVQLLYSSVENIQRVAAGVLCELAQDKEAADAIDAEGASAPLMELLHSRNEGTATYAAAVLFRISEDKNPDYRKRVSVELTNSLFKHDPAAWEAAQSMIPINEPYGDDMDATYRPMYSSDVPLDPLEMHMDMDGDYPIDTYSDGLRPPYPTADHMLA

T3: full-length (FL) plakoglobin (UniProt P14923)
T3 sequence: T2 sequence

B1: vinculin (protein, UniProt Q64727 1-1066)
chain: MPVFHTRTIESILEPVAQQISHLVIMHEEGEVDGKAIPDLTAPVAAVQAAVSNLVRVGKETVQTTEDQILKRDMPPAFIKVENACTKLVQAAQMLQSDPYSVPARDYLIDGSRGILSGTSDLLLTFDEAEVRKIIRVCKGILEYLTVAEVVETMEDLVTYTKNLGPGMTKMAKMIDERQQELTHQEHRVMLVNSMNTVKELLPVLISAMKIFVTTKNSKNQGIEEALKNRNFTVEKMSAEINEIIRVLQLTSWDEDAWASKDTEAMKRALASIDSKLNQAKGWLRDPNASPGDAGEQAIRQILDEAGKVGELCAGKERREILGTCKMLGQMTDQVADLRARGQGASPVAMQKAQQVSQGLDVLTAKVENAARKLEAMTNSKQSIAKKIDAAQNWLADPNGGPEGEEQIRGALAEARKIAELCDDPKERDDILRSLGEIAALTSKLGDLRRQGKGDSPEARALAKQVATALQNLQTKTNRAVANSRPAKAAVHLEGKIEQAQRWIDNPTVDDRGVGQAAIRGLVAEGHRLANVMMGPYRQDLLAKCDRVDQLTAQLADLAARGEGESPQARALASQLQDSLKDLKAQMQEAMTQEVSDVFSDTTTPIKLLAVAATAPPDAPNREEVFDERAANFENHSGRLGATAEKAAAVGTANKSTVEGIQASVKTARELTPQVISAARILLRNPGNQAAYEHFETMKNQWIDNVEKMTGLVDEAIDTKSLLDASEEAIKKDLDKCKVAMANIQPQMLVAGATSIARRANRILLVAKREVENSEDPKFREAVKAASDELSKTISPMVMDAKAVAGNISDPGLQKSFLDSGYRILGAVAKVREAFQPQEPDFPPPPPDLEQLRLTDELAPPKPPLPEGEVPPPRPPPPEEKDEEFPEQKAGEVINQPMMMAARQLHDEARKWSSKGNDIIAAAKRMALLMAEMSRLVRGGSGTKRALIQCAKDIAKASDEVTRLAKEVAKQCTDKRIRTNLLQVCERIPTISTQLKILSTVKATMLGRTNISDEESEQATEMLVHNAQNLMQSVKETVREAEAASIKIRTDAGFTLRWVRKTPWYQ
B2: caveolin-1 (protein, UniProt P49817 1-178)
chain: MSGGKYVDSEGHLYTVPIREQGNIYKPNNKAMADEVTEKQVYDAHTKEIDLVNRDPKHLNDDVVKIDFEDVIAEPEGTHSFDGIWKASFTTFTVTKYWFYRLLSTIFGIPMALIWGIYFAILSFLHIWAVVPCIKSFLIEIQCISRVYSIYVHTFCDPLFEAIGKIFSNIRISTQKEI
B3: β-dystroglycan (protein, UniProt Q62165 652-893)
chain: SIVVEWTNNTLPLEPCPKEQIIGLSRRIADENGKPRPAFSNALEPDFKALSIAVTGSGSCRHLQFIPVAPPSPGSSAAPATEVPDRDPEKSSEDDVYLHTVIPAVVVAAILLIAGIIAMICYRKKRKGKLTLEDQATFIKKGVPIIFADELDDSKPPPSSSMPLILQEEKAPLPPPEYPNQSMPETTPLNQDTVGEYTPLRDEDPNAPPYQPPPPFTAPMEGKGSRPKNMTPYRSPPPYVPP
modifications: glycosylated form detected (glycosylated β-dystroglycan)
B4: tyrosine kinase receptor MuSK (receptor, UniProt Q61006 22-868)
chain: EKLPKAPVITTPLETVDALVEEVATFMCAVESYPQPEISWTRNKILIKLFDTRYSIRENGQLLTILSVEDSDDGIYCCIANNGVGGAVESCGALQVKMKPKITRPPINVKIIEGLKAVLPCTTMGNPKPSVSWIKGDNALRENSRIAVLESGSLRIHNVQKEDAGQYRCVAKNSLGTAYSKLVKLEVEVFARILRAPESHNVTFGSFVTLRCTAIGIPVPTISWIENGNAVSSGSIQESVKDRVIDSRLQLFITKPGLYTCIATNKHGEKFSTAKAAATVSIAEWSKSQKDSQGYCAQYRGEVCDAVLAKDALVFFNTSYRDPEDAQELLIHTAWNELKAVSPLCRPAAEALLCNHLFQECSPGVVPTPMPICREYCLAVKELFCAKEWQAMEGKAHRGLYRSGMHLLPVPECSKLPSMHRDPTACTRLPYLDYKKENITTFPSITSSRPSADIPNLPASTSSFAVSPAYSMTVIISIVSSFALFALLTIATLYCCRRRKEWKNKKRESTAVTLTTLPSELLLDRLHPNPMYQRMPLLLNPKLLSLEYPRNNIEYVRDIGEGAFGRVFQARAPGLLPYEPFTMVAVKMLKEEASADMQADFQREAALMAEFDNPNIVKLLGVCAVGKPMCLLFEYMAYGDLNEFLRSMSPHTVCSLSHSDLSTRARVSSPGPPPLSCAEQLCIARQVAAGMAYLSERKFVHRDLATRNCLVGETMVVKIADFGLSRNIYSADYYKADGNDAIPIRWMPPESIFYNRYTTESDVWAYGVVLWEIFSYGLQPYYGMAHEEVIYYVRDGNILACPENCPLELYNLMRLCWSKLPADRPSFCSIHRILQRMCERAEGTVGV

Legend:
[1] = biological target: T1, plakoglobin (γ-catenin) (mouse (endogenous in mouse skeletal muscle, heart and liver)); test: co-IP; coimmunoprecipitation in mouse heart and liver (Supplementary Fig. 2)
[2] = biological target: T1, plakoglobin (γ-catenin) (mouse (endogenous in mouse skeletal muscle, heart and liver)); test: co-IP; anti-plakoglobin from fraction #16 of a 10–40% glycerol gradient of the membrane-cytoskeleton fraction of mouse muscle; immunoblotting
[3] = biological target: T1, plakoglobin (γ-catenin) (mouse (endogenous in mouse skeletal muscle, heart and liver)); test: co-IP; plakoglobin immunoprecipitation from the high MW protein peak of the gel filtration of mouse muscle; bound proteins detected by immunoblotting
[4] = biological target: T1, plakoglobin (γ-catenin) (mouse (endogenous in mouse skeletal muscle, heart and liver)); test: co-IP; plakoglobin immunoprecipitation from muscle membrane extracts of fed or fasted (2 days) mice treated with colchicine or vehicle; immunoblotting
6His-plakoglobin = biological target: T2, 6His-plakoglobin; test: pull-down; 6His-plakoglobin electroporated into mouse TA muscle, Nickel column, bound proteins eluted with a histidine gradient (50–250 mM), immunoblotting
[5] = biological target: T1, plakoglobin (γ-catenin) (mouse (endogenous in mouse skeletal muscle, heart and liver)); test: co-IP; plakoglobin immunoprecipitation from glycerol gradient fractions of membrane extracts of muscles from WT or MKR mice expressing shLacz or 6His-plakoglobin, mice injected with glucose
[6] = biological target: T3, full-length (FL) plakoglobin; test: pull-down; 6His-tagged FL plakoglobin and 6His-V5-tagged truncation mutants purified from transfected mouse muscles on a Nickel column with a histidine gradient; immunoblotting and densitometric protein ratios
[7] = biological target: T1, plakoglobin (γ-catenin) (mouse (endogenous in mouse skeletal muscle, heart and liver)); test: co-IP; plakoglobin immunoprecipitation from membrane extracts of muscles of fed mice, then incubation in vitro with synthetic peptides or scrambled control, 4 °C, 1 h; immunoblotting

Molecule | binding [1] | binding [2] | binding [3] | binding [4] | binding (6His-plakoglobin) | binding [5] | binding [6] | binding [7]
insulin receptor (from UniProt P15208 28-748; P15208 753-1372) | binds | binds | binds | binds | binds | binds | binds | 
dystrophin (from UniProt P11531 1-3678) |  |  |  | binds |  |  | binds | 
B1 |  |  |  |  | binds |  |  | 
B2 |  |  | binds |  | binds |  |  | 
B3 |  |  |  | binds |  | binds | binds | binds
B4 | no binding | no binding |  |  |  |  |  | 
